Non-standard residues stand in square brackets, D forms with d. No end group written: not given here. Ahx = NCCCCCC(=O)O

From paper PMC7714073 (FEBS Open Bio, 2020) come the findings set out here.

The nature of this data set: general procedure: Fmoc solid-phase peptide synthesis. To be noted: whole synthesis, based on the capacity of the resin.

The substance “6‐aminohexanoic acid (Ahx)–Phe–Leu–Arg–COOH” yielded an isolated yield of 36%. “[Ahx]LLR-OH (N-terminus assumed; SMILES CC(C)C[C@H](NC(=O)CCCCCN)C(=O)N[C@@H](CC(C)C)C(=O)N[C@@H](CCCNC(=N)N)C(=O)O)” registered an isolated yield of 74%.
